Our source for the binding values is publication PMC7754016.

Protein sequences, listed by entry. Tags and fused reporters are not part of them. Lines headed by an entry give the natural chain unless they say otherwise; changes in a name come on top.
UniProt P35680: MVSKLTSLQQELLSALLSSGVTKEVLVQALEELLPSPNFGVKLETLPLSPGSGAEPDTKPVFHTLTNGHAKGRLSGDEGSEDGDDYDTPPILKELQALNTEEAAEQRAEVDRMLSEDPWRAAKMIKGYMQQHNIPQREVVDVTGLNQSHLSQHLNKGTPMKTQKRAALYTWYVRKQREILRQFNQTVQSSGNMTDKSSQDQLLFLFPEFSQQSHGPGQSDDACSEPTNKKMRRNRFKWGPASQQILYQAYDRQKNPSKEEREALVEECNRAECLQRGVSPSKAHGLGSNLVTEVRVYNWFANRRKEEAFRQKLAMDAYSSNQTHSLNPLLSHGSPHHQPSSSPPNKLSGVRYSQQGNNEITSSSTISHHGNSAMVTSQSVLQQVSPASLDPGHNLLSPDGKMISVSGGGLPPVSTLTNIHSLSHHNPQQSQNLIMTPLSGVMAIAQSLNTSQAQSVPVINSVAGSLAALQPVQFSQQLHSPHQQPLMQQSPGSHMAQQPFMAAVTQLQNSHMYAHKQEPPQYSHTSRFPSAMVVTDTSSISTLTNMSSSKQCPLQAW
UniProt P42771: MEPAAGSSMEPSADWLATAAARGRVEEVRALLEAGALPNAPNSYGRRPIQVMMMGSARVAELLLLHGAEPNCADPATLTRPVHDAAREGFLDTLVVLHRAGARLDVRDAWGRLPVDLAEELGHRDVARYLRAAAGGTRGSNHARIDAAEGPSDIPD

This assay deals with Flag-HNF1B (Hepatocyte Nuclear Factor 1β) (UniProt P35680). Kind of assay: co-IP; Flag-HNF1B and HA-CDKN2A in HEK293T cells.

No constants are given. Whether binding was seen depends on the method and setting. Binding seen in cells or lysates may run through a third protein. A result given as binding can be weak or reduced; the word gives no strength.

Take “HA-CDKN2A (P16, Cyclin-Dependent Kinase Inhibitor 2A) (from UniProt P42771)”: the binding entry is on record as “binds”.
